# Results of single-concentration screens

By UniProt entry, the sequences of proteins in these tests, tags left out.
UniProt P9WPC5, whole entry: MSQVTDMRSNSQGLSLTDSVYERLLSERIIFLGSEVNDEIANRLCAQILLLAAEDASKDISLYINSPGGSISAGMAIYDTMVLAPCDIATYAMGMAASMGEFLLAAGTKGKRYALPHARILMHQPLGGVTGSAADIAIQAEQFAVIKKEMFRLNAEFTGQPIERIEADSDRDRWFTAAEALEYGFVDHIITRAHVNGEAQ
UniProt P9WPC3, whole entry partner: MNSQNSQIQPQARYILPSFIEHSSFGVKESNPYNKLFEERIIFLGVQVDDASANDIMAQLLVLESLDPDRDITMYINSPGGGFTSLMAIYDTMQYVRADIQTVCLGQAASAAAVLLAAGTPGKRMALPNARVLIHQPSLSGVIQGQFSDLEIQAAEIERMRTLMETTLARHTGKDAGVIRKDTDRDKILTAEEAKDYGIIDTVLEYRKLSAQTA
UniProt I6X8D2, whole entry: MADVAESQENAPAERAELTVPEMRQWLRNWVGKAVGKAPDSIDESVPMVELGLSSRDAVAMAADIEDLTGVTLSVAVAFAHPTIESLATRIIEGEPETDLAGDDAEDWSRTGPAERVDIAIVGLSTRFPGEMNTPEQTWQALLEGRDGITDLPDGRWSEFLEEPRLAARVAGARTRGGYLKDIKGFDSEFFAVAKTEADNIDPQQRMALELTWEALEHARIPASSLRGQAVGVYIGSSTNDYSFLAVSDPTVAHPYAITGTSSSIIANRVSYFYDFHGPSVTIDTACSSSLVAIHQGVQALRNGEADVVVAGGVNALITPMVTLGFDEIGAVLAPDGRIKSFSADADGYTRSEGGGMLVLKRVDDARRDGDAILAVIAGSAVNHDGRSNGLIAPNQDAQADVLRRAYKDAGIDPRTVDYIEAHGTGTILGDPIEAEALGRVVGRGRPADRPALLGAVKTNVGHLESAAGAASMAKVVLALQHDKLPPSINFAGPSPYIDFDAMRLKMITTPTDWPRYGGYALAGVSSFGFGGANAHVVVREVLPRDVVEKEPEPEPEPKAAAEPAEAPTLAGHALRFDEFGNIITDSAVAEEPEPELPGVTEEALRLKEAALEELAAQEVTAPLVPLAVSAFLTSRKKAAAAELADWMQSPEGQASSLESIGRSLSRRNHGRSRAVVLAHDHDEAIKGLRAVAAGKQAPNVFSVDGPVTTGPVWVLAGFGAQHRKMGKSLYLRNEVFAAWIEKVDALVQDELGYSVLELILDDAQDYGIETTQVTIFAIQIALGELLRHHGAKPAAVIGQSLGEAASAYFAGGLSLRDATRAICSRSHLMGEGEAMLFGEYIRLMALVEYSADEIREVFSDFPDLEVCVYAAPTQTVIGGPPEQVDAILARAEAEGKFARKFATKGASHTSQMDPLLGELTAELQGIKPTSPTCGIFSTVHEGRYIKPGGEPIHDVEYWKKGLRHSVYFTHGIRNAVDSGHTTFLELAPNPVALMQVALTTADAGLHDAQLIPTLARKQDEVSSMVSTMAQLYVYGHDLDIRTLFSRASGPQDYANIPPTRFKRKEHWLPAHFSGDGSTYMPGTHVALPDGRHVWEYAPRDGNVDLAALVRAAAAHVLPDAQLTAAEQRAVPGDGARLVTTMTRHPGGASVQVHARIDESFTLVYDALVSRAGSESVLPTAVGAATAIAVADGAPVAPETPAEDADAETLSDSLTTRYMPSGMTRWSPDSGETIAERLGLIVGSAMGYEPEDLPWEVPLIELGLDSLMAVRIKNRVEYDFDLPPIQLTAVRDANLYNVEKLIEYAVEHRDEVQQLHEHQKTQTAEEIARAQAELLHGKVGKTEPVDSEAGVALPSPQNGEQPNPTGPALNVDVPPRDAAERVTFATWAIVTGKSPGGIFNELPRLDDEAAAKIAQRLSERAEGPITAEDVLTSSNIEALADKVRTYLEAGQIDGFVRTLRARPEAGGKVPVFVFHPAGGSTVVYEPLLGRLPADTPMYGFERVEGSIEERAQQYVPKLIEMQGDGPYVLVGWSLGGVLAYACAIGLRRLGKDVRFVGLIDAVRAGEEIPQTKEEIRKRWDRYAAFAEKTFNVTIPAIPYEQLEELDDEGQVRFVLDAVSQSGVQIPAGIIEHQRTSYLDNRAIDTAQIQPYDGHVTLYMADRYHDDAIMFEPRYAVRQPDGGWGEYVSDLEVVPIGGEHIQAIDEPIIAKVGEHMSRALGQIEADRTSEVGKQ
UniProt P9WFT3, whole entry: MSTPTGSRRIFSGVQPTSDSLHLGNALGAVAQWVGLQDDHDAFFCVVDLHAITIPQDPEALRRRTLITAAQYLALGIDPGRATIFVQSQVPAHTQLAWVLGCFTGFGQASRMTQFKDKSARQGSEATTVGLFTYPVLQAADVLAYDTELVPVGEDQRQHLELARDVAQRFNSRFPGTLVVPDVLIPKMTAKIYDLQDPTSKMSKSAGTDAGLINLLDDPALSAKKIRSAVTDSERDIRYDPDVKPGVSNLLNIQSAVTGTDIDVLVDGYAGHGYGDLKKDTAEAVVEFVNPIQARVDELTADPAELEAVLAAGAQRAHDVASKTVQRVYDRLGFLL

A: 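Protease assay of ClpP1P2, read by the AMC dye that it sets free. Target: ClpP1P2, Mycobacterium tuberculosis (UniProt P9WPC5 and UniProt P9WPC3). Tested at 50 µM. Higher reads as stronger inhibition, judged from the few compounds that gave an IC50. Most other retested compounds had strongly negative values. About 69,000 compounds were tested under these conditions; 0.015% (about 10) showed 50% or more at least once.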
B: 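Polyketide synthase Pks13, Mycobacterium tuberculosis (UniProt I6X8D2). Enzyme assay of the thioesterase domain of polyketide synthase 13; the read-out is not stated. Tested at 30 µM. Higher reads as stronger inhibition (inferred from which compounds were picked for retests). About 67,000 compounds were tested under these conditions; 0.46% (about 300) showed 50% or more at least once.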
C: 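Tryptophan-tRNA ligase, Mycobacterium tuberculosis (UniProt P9WFT3). Enzyme assay of tryptophanyl-tRNA synthetase; the read-out is not stated. Concentration: 10 µM. Direction is not recorded; retested compounds ran higher, which suggests that high means inhibition. Size under these conditions: about 65,000 compounds, about 64 of them at 50% or above in at least one test.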

Results are given as percent effect. The record does not define 0% and 100%; most values in the screen are far below 50% and negative numbers occur (in some assays of this library far below -100). The compounds are a random part of those screened. A dash means the value is not listed here; it may have been measured.

compound | A | B | C
O=C1CCc2cc(S(=O)(=O)NC(=O)c3ccc4c(c3)COC4)ccc2N1 | -18.84% | 6.402% | -0.7524%
CC(O)c1cn(CC2CCN(C(=O)CN3CCCC3=O)CC2)nn1 (centres unmarked) | -17.83% | 4.359% | -3.473%
CCCOc1ccc(CC2=NC(C)(CO)CO2)cc1 (centres unmarked) | 17.65% | 8.932% | -3.641%
O=c1c2ccccc2nc2n1C(CSc1cccc(C(F)(F)F)c1)CN2 (centres unmarked) | -14.72% | -7.62% | 1.573%
O=C(CS(=O)(=O)Cc1cc(Cl)c2c(c1)OCO2)N1CCCC1 | -14.01% | -15.62% | -2.128%
Cc1nn2cccnc2c1C(=O)N1CCCC(n2cccn2)C1 (centres unmarked) | -22.68% | -33.61% | 17.91%
COCCN(C)C[C@@H]1CN(c2nnc(C(C)C)s2)C[C@@H]1CO | 3.027% | -17.41% | -2.377%
CC(C)n1cnnc1CN1CCC2(CCCN(C3CCCCC3)C2=O)C1 (centres unmarked) | -0.1356% | -14.66% | 8.539%
CC(C)N(C)CC(=O)N(C)C(c1cccc(F)c1)c1ccccn1 (centres unmarked) | 19.89% | -28.97% | 94.71%
CSCCC(NC(N)=O)C(=O)NCc1cnn(-c2ccccc2)c1 (centres unmarked) | -1.13% | -11.26% | 0.2467%
O=C1CCCCCN1CCC(=O)N1CCCC(c2ccn[nH]2)C1 (centres unmarked) | 1.764% | -25.7% | -6.458%
COc1ccccc1C1=NOC(CC2(C(=O)NCCO)CCOCC2)C1 (centres unmarked) | 7.136% | -2.523% | -0.4058%
NC(=O)c1cccc(CC2CCN(C(=O)Cn3cnnn3)C2)c1 (centres unmarked) | -13.22% | 8.27% | -1.087%
COC1COC2(CCN(Cc3ccccc3C)CC2)C1 (centres unmarked) | -8.395% | 7.657% | 0.1383%
CCN(Cc1ccccc1)C(=O)CN1CCCC(Cn2cncn2)C1 (centres unmarked) | -3.021% | -14.18% | 0.4873%
Cn1ncnc1NCc1ccc(Br)cc1 | -3.108% | 4.116% | 0.4591%
CCCN1CCN(C(=O)c2ccn(COc3ccc(F)cc3)n2)CC1 | -8.801% | -12.32% | -2.72%
CN(C)S(=O)(=O)N1C[C@@H]2CC[C@H](C1)N(Cc1ccc3[nH]ccc3c1)C2 | 11.21% | -18.92% | -3.098%
c1cnc(N2CC3(CCN(Cc4cccnc4)C3)C2)nc1 | 16.98% | -44.74% | 9.012%
CN1CCC(c2[nH]ncc2S(C)(=O)=O)CC1 | -7.52% | -7.451% | -8.22%
Cc1cc(N2CCCN(C(=O)CSCC3CC3)CC2)ccn1 | -4.236% | -35.41% | -5.482%
CC(C)Cc1nc(CN2CCC(NC(=O)c3cccs3)CC2)no1 | -3.926% | -16.46% | -0.4519%
Cc1noc(C)c1CN(C)C(=O)C1CCCN1S(N)(=O)=O (centres unmarked) | 6.991% | 5.114% | 3.592%
Cc1ncc(CNC2CC(=O)N(CCc3cccc(Cl)c3)C2)n1C (centres unmarked) | 0.4394% | -8.799% | 0.4122%
CC(C)C(=O)N1CCCC2(CCCN2Cc2cccnc2)C1 (centres unmarked) | 8.113% | 9.351% | -1.623%
Cc1nnc2n1CCN(CCC(=O)Nc1sccc1C#N)C2 | 0.3607% | -4.129% | 2.047%
Cc1ccc(N2CCO[C@H]3CN(Cc4ccc(F)cc4)C[C@H]32)nn1 | 1.905% | 4.791% | 1.604%
CN(C)CCCn1cnc2cc(NC(=O)c3n[nH]c4c3CCC4)ccc21 | -4.256% | -24.29% | -3.233%
CC(C)Cc1nc(NC(=O)c2cccnc2)n[nH]1 | -5.276% | 11.37% | 1.581%
Cc1ccc(-c2nc(CCNC(=O)NC3CCC(O)CC3)co2)cc1 (centres unmarked) | -17.54% | -9.367% | -2.563%
COC(=O)[C@H]1CN(C(C)=O)CCN1C(C)=O | 5.078% | -20.13% | -2.365%
O=C(c1ccnnc1)N1CCN(Cc2ccncc2)c2ncccc2C1 | -14.61% | -12.42% | -8.245%
CCc1nnc(NC(=O)c2c3c(nn2C2CCS(=O)(=O)C2)CCC3)s1 (centres unmarked) | 6.516% | -12.83% | -3.485%
Cc1nc(C2CCCN(C(=O)c3ccc(Cl)cn3)C2)no1 (centres unmarked) | -12.91% | -28.71% | -7.917%
CCN1CCOCC12CCN(C(=O)Cc1ccccc1)CC2 | 5.345% | -7.82% | -0.9931%
O=S(=O)(NCCc1ccccc1C(F)(F)F)N1CCOCC1 | -4.877% | 12.73% | 0.7742%
CCC(=O)N1CCC(NCc2cc(C(F)(F)F)ccc2Cl)C1 (centres unmarked) | -6.818% | -25.03% | -4.078%
C=C(C)COc1cccc(C(=O)N(C)C(C)c2ccncn2)c1 (centres unmarked) | -1.244% | -28.77% | -6.757%
CCOCC(=O)N1CC[C@H]2[C@@H]1CCC(=O)N2Cc1csc(C)n1 | -4.666% | -11.09% | -1.564%
CN(C)Cc1nn(C)c2c1CCN(C(=O)CC1CC1)C2 | 18.35% | 18.76% | -3.56%
CN(CC(=O)Nc1cccnc1)C1CCCN(c2cccnn2)C1 (centres unmarked) | -18.65% | -17.71% | 57.89%
COc1ccccc1C(NC(=O)NC1CC1)c1noc(C)n1 (centres unmarked) | -0.8502% | -0.8388% | -2.058%
CCn1ccnc1SCCn1cnc2ccsc2c1=O | 4.337% | - | 0.7261%
CCN1CCN(C(=O)c2ccn(C)c(=O)c2)CC1 | 13.56% | -10.88% | -1.462%
c1cncc(-n2cnnc2CCCN2CCOCC2)c1 | 0.121% | -1.325% | -0.7538%
CN1CCCCC(C2CCN(S(=O)(=O)c3cn(C)cn3)CC2)C1=O (centres unmarked) | -19.58% | 0.2003% | 2.263%
Cc1ccc(C)c(CS(=O)(=O)CC(=O)NCCCOC(C)C)c1 | -6.772% | -10.21% | -5.511%
Cc1cnn(CC2CN(CCc3cccs3)CCO2)c1 (centres unmarked) | -26.11% | -2.068% | -4.231%
c1ccc(CCCn2ccnc2-c2cn(C3CCNCC3)nn2)nc1 | 18.86% | -8.085% | 0.1514%
CC(C1CC1)N(C)C(=O)CCn1cccn1 (centres unmarked) | -8.031% | 1.311% | 14.06%
COc1ccc(C(C(=O)O)N2CCCN(C3CCCC3)CC2)cc1OC (centres unmarked) | -4.076% | -13.77% | -3.688%
COc1ccc(C)cc1CC(=O)NS(=O)(=O)c1ccc(C(N)=O)cc1 | -15.7% | -9.916% | -10.01%
O=C(Nc1ccc(-c2csnn2)cc1)N1CCN2CCCCC2C1 (centres unmarked) | -8.565% | -3.094% | -0.4566%
COCCOCCNC(=O)c1ccc(N2CCC(C)=N2)cc1 | -3.686% | 1.025% | -3.082%
Cc1cnccc1-n1nc(C(C)C)nc1CS(C)(=O)=O | -0.4357% | -47.89% | -3.715%
Cc1cn(Cc2ccccc2)nc1N | -9.948% | -12.05% | -

Source: ChEMBL document CHEMBL3988442, “University of Dundee, Small-Polar-MMV Screening Library” (2021).